Measurements taken from article PMC10139803.
No constants are given. Whether binding was seen depends on the method and setting. In cells and extracts the contact can be indirect. Some binding calls cover weakened binding; strength is not graded here.

Sequences of proteins named here, by UniProt entry; tags and fusion partners are left off.
UniProt Q9C026: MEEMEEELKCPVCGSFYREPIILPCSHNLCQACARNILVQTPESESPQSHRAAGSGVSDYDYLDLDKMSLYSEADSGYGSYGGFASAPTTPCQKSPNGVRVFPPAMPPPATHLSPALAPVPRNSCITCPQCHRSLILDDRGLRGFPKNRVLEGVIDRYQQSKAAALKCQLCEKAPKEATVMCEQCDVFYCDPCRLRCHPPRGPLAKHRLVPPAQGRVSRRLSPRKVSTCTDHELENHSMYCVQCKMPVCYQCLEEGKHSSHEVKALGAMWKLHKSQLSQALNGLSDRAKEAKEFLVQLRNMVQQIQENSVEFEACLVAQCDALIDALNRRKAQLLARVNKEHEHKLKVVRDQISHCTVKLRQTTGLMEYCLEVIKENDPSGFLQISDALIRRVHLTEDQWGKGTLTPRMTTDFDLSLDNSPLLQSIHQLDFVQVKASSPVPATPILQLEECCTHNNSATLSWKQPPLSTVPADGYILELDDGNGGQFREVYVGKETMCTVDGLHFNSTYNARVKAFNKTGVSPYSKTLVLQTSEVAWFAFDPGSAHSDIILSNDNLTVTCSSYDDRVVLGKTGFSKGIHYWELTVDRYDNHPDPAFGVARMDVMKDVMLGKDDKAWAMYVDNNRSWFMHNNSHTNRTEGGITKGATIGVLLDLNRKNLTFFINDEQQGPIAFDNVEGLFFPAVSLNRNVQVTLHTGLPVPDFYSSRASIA

Assays:
FLAG-TRIM9 = FLAG-TRIM9 (UniProt Q9C026); assay: co-IP; HEK-293T cell lysate; supernatants incubated with 5 μg anti-FLAG and A/G Sepharose beads at 4°C overnight, washed three times, Western blot
[1] = target: TRIM9 (Tripartite Motif Containing 9) (UniProt Q9C026); assay: co-IP; KYSE-410 cell lysate; supernatants incubated with antibody and A/G Sepharose beads at 4°C overnight, washed three times, Western blot; bait not stated

- binding (FLAG-TRIM9): binds
- binding [1]: binds
B1: ZEB1 (zinc finger E-box binding homeobox 1) (protein, UniProt P37275 1-1124)
chain: MADGPRCKRRKQANPRRNNVTNYNTVVETNSDSDDEDKLHIVEEESVTDAADCEGVPEDDLPTDQTVLPGRSSEREGNAKNCWEDDRKEGQEILGPEAQADEAGCTVKDDECESDAENEQNHDPNVEEFLQQQDTAVIFPEAPEEDQRQGTPEASGHDENGTPDAFSQLLTCPYCDRGYKRFTSLKEHIKYRHEKNEDNFSCSLCSYTFAYRTQLERHMTSHKSGRDQRHVTQSGCNRKFKCTECGKAFKYKHHLKEHLRIHSGEKPYECPNCKKRFSHSGSYSSHISSKKCISLIPVNGRPRTGLKTSQCSSPSLSASPGSPTRPQIRQKIENKPLQEQLSVNQIKTEPVDYEFKPIVVASGINCSTPLQNGVFTGGGPLQATSSPQGMVQAVVLPTVGLVSPISINLSDIQNVLKVAVDGNVIRQVLENNQANLASKEQETINASPIQQGGHSVISAISLPLVDQDGTTKIIINYSLEQPSQLQVVPQNLKKENPVATNSCKSEKLPEDLTVKSEKDKSFEGGVNDSTCLLCDDCPGDINALPELKHYDLKQPTQPPPLPAAEAEKPESSVSSATGDGNLSPSQPPLKNLLSLLKAYYALNAQPSAEELSKIADSVNLPLDVVKKWFEKMQAGQISVQSSEPSSPEPGKVNIPAKNNDQPQSANANEPQDSTVNLQSPLKMTNSPVLPVGSTTNGSRSSTPSPSPLNLSSSRNTQGYLYTAEGAQEEPQVEPLDLSLPKQQGELLERSTITSVYQNSVYSVQEEPLNLSCAKKEPQKDSCVTDSEPVVNVIPPSANPINIAIPTVTAQLPTIVAIADQNSVPCLRALAANKQTILIPQVAYTYSTTVSPAVQEPPLKVIQPNGNQDERQDTSSEGVSNVEDQNDSDSTPPKKKMRKTENGMYACDLCDKIFQKSSSLLRHKYEHTGKRPHECGICKKAFKHKHHLIEHMRLHSGEKPYQCDKCGKRFSHSGSYSQHMNHRYSYCKREAEERDSTEQEEAGPEILSNEHVGARASPSQGDSDERESLTREEDEDSEKEEEEEDKEMEELQEEKECEKPQGDEEEEEEEEEVEEEEVEEAENEGEEAKTEGLMKDDRAESQASSLGQKVGESSEQVSEEKTNEA
